From publication PMC7819943, “Rice protein-binding microarrays: a tool to detect cis-acting elements near promoter regions in rice” come the findings set out here.

The other results are listed elsewhere or left out.

This test deals with T1, OsSMF1 (Oryza sativa, UniProt Q6ZLB0 1-436).
T1 sequence: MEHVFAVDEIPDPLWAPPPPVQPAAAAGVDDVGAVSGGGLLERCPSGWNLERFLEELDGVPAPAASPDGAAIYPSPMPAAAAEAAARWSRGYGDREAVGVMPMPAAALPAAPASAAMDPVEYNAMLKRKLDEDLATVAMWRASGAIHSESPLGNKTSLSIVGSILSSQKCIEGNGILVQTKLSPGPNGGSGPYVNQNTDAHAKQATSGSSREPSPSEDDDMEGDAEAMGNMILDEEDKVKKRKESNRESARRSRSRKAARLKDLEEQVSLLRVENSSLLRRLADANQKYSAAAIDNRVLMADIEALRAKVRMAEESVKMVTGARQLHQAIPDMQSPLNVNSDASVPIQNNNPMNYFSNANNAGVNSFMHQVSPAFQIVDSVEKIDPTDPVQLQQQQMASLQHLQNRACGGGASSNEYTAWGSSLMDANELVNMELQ
The test can be described thus: protein-binding microarray (RPBM); PBS, 2% BSA, 51.3 ng/ul salmon testes DNA, 50 uM zinc acetate, 200 nM TF, 25 C, 1 h; high values mean tight binding. The following applies: protein: recombinant; tags: N-terminal polyhistidine and DsRed monomer fusion (pET32a); chain copies: 2; label: CyDye5-dUTP incorporated in the synthesized complementary strand; 3' TTTTT single-stranded linker to array surface; dsDNA, one strand shown. In short, it runs like this:
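Binding signal here means per-feature fluorescence intensity in arbitrary units. The values were read on an Axon 4000B scanner after a custom Agilent array, double-stranded by primer extension with Cy5-dUTP, was incubated with 200 nM protein at 25 °C for 1 h in PBS with 2% BSA, salmon testes DNA and 50 µM zinc acetate, then washed. The proteins were transcription factors with an N-terminal polyhistidine tag and DsRed, expressed in E. coli BL21-CodonPlus and purified on Ni–NTA.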
With “TAAAACACTCAATGTATCCGTGACTCGAATCATCGATGAACGGAGTCACCTAGTGCAG”, the binding signal was 3380 fluorescence intensity (a.u.).

With “TCTGGACTGTGTGTTCTTCTTTGGTGGCAGATTTGGTTTGCGGAGTCACCTAGTGCAG”, the binding signal was 3710 fluorescence intensity (a.u.).

Take “TGCAATCTTTCGTAACAATCTCTGCCACGGTGCACCCCTCCGGAGTCACCTAGTGCAG”: the binding signal is 3320 fluorescence intensity (a.u.).

As for “ATCCCAACTATCTTCATAAAGAAGTTGAAAATCATTTCGTCGGAGTCACCTAGTGCAG”, the binding signal was 30700 fluorescence intensity (a.u.).

With “GGTCCAGCGGGTGTCCCTCCACGTCGACCCGGCGAGGGCGCGGAGTCACCTAGTGCAG”, the binding signal was 7940 fluorescence intensity (a.u.).

Turning to “GTAGCAGTGTAAGTGTGAGTCACACTGTCATTTGTGCTAGCGGAGTCACCTAGTGCAG”, the binding signal is 6810 fluorescence intensity (a.u.).

“CTCGGCAGTTTTGACTCCGGTTTTGTTCGACGTGGCAGCTCGGAGTCACCTAGTGCAG”: the binding signal is 12200 fluorescence intensity (a.u.).

Take “GATCTGGTGCGGGGAGAGCCCCACGTCCTCGCTGGTGGCGCGGAGTCACCTAGTGCAG”: the binding signal was 4270 fluorescence intensity (a.u.).

Consider “ACTTTGTTGCTCAGCCTGTCAGATAATGGGCCATATCTCGCGGAGTCACCTAGTGCAG”, for which the binding signal was 3200 fluorescence intensity (a.u.).

As for “CAGTCAACACCAGGAGCTGAGCTGTACAAATTGGGCCGCACGGAGTCACCTAGTGCAG”, the binding signal is 5660 fluorescence intensity (a.u.).

As to “CCGATCTCCGGCCCACCCACGTCACCCCACCCACTGGCTGCGGAGTCACCTAGTGCAG”, the binding signal is 17800 fluorescence intensity (a.u.).

As for “CAAATCGACAAATCTAGATATATGATTACATATATAACATCGGAGTCACCTAGTGCAG”, the binding signal is 23000 fluorescence intensity (a.u.).

On to “TGGAATTTCCCCTGTGATTACATACGTGTGCTCGTAATGTCGGAGTCACCTAGTGCAG”, for which the binding signal was 4700 fluorescence intensity (a.u.).

“CAGGGTTATATAATGGGTCTTATTAATAGTCTACGTTTAACGGAGTCACCTAGTGCAG”: the binding signal is 3250 fluorescence intensity (a.u.).

As to “AAATTAATAGGATGCCACATCCTTATCCTAGATGGAACAACGGAGTCACCTAGTGCAG”, the binding signal is 3530 fluorescence intensity (a.u.).

As to “CCCAATCTTGCGGTCACGTCGTTGTGAAACATACTAGGTCCGGAGTCACCTAGTGCAG”, the binding signal was 26300 fluorescence intensity (a.u.).

Regarding “GCACAGTTGCAACCTCACACTGAGCGTCATTCAGTCAATTCGGAGTCACCTAGTGCAG”, the binding signal was 3400 fluorescence intensity (a.u.).

Consider “CCATGGCGGGCGAGTTAGTTGGTCAGAGTTGTAGTTAACCCGGAGTCACCTAGTGCAG”, for which the binding signal is 3180 fluorescence intensity (a.u.).

On to “TGTGGTTGGTGTCGATTTGGAATGGGGTGAAATGGACTGGCGGAGTCACCTAGTGCAG”, for which the binding signal is 3260 fluorescence intensity (a.u.).

In the case of “AGTGCTTTATCACACAGAATCAATACCCAAGAAGCATATGCGGAGTCACCTAGTGCAG”, the binding signal was 41000 fluorescence intensity (a.u.).

For the sequence “TTGGGTGCTAGCCGTGCAATTACGCGGGCCACCCAGCTAGCGGAGTCACCTAGTGCAG”, the binding signal is 3160 fluorescence intensity (a.u.).

“GACGTGCTAAACATGGTGGGGTTAGGCGTCACCGATGGGACGGAGTCACCTAGTGCAG”: the binding signal is 3490 fluorescence intensity (a.u.).

With “TGCGTCGTTCTCCACAAACTCAACCACCAGTGACTCCTACCGGAGTCACCTAGTGCAG”, the binding signal was 3220 fluorescence intensity (a.u.).

As for “CTATTGAATGAAATTGACGTGTCGCCCGTTTGTTAAAATACGGAGTCACCTAGTGCAG”, the binding signal is 9070 fluorescence intensity (a.u.).

For “AAGGTCAACGGCACGTGGCCGCAGGTGCCCACCTCCAGCTCGGAGTCACCTAGTGCAG”, the binding signal was 5200 fluorescence intensity (a.u.).

With “TTAAGCGCTATGTGAACACCACGTAGACACCATGTCAGTCCGGAGTCACCTAGTGCAG”, the binding signal is 8890 fluorescence intensity (a.u.).

With “CACTACAAAAGACATTTGCCATGTCATGTCATGTCGCATACGGAGTCACCTAGTGCAG”, the binding signal was 7450 fluorescence intensity (a.u.).

“GTGGGGCTGACGACGACGACGAGGGCGACGGCGGCGTAGCCGGAGTCACCTAGTGCAG”: the binding signal was 5510 fluorescence intensity (a.u.).

“CGGATGCGTCAGCGAGGTGATGATCCATGGGAGGCCCAACCGGAGTCACCTAGTGCAG”: the binding signal is 3360 fluorescence intensity (a.u.).

For “ATTTCACAAACATGCAAGTTAAAATTCGACTTATACAATTCGGAGTCACCTAGTGCAG”, the binding signal was 16400 fluorescence intensity (a.u.).

For “CGTCGTCGTCGTCATCTCCTCTTTGGTTTCTCCTGAACAACGGAGTCACCTAGTGCAG”, the binding signal was 4420 fluorescence intensity (a.u.).

As for “GAAAACTAGTCCAAAATGAGTCTTTGCTTCAATGCAAACGCGGAGTCACCTAGTGCAG”, the binding signal is 39000 fluorescence intensity (a.u.).

As to “GCCGCCCTTTCTCCTCCTCCCTCCACGAACCACGAATCCCCGGAGTCACCTAGTGCAG”, the binding signal was 3700 fluorescence intensity (a.u.).

On to “TCACTACAGGCTGATCATGGTAGTAAAGTCCACAACTCCACGGAGTCACCTAGTGCAG”, for which the binding signal was 3260 fluorescence intensity (a.u.).

As for “CTGCGCGGCCGGCTACGTGTTCGCGCGCGAGCCACAACACCGGAGTCACCTAGTGCAG”, the binding signal is 3840 fluorescence intensity (a.u.).

Turning to “GCGATTCCATAATGGTGAGTCAGTGACAGAGCAAACCATGCGGAGTCACCTAGTGCAG”, the binding signal is 6070 fluorescence intensity (a.u.).

Turning to “GGAACTGATAGGTAAAGGTCAGACTGTGTCACGGGCGCTGCGGAGTCACCTAGTGCAG”, the binding signal was 4670 fluorescence intensity (a.u.).

Regarding “CTTACGGACAATGCGTATGACGCACGCCCGGATTAACGTCCGGAGTCACCTAGTGCAG”, the binding signal was 6680 fluorescence intensity (a.u.).

As to “GCGTACGCGCATCCACGCGTACGCGATCGACGATCCCCTCCGGAGTCACCTAGTGCAG”, the binding signal is 4730 fluorescence intensity (a.u.).

With “ATGAGGGAAGTGTGGCGCTGTAGCTTCGGGTGGTGGGGCTCGGAGTCACCTAGTGCAG”, the binding signal is 3790 fluorescence intensity (a.u.).

“TGGCCCCACCTGTCAGTGTCCGTACCGGTCCACGCGTGTGCGGAGTCACCTAGTGCAG”: the binding signal was 4310 fluorescence intensity (a.u.).

Regarding “CTTATATGACTCATTTTATACTTCTAAAAGGAAACAAGCTCGGAGTCACCTAGTGCAG”, the binding signal was 5430 fluorescence intensity (a.u.).
